Measured values: the supplement of paper PMC12823440, “Inhibitors supercharge kinase turnover through native proteolytic circuits” (Nature, 2025)
Structures can show the parent of a compound that is named as a salt. The list shows a part of the results. Hit calls seldom repeat between salt and free forms of one compound.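 In K562 cells expressing nanoluciferase-fused kinases, luminescence was recorded at 4 h intervals between 2 and 18 h, normalized as percent of control with DMSO at 100% and a positive control at 0%. A significant (2 sigma) signal drop marks a time point as decreased. The authors' rule for a hit is not shown and takes in more than the number of time points.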

Sequences of proteins named here, by UniProt entry; tags and fusion partners are left off. A change or cut given only in a name is not applied to a line headed by its entry.
UniProt P28482, whole entry: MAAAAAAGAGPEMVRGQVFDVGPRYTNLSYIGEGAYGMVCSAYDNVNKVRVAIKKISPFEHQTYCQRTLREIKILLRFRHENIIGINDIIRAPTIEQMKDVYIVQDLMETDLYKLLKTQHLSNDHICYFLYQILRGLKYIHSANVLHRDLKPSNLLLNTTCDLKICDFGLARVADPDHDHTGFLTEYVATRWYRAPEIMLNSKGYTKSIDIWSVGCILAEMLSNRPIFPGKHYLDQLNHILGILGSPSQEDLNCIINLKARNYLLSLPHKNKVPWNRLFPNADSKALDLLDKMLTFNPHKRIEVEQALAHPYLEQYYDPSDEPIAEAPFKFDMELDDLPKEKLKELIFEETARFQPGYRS
UniProt Q9BUB5: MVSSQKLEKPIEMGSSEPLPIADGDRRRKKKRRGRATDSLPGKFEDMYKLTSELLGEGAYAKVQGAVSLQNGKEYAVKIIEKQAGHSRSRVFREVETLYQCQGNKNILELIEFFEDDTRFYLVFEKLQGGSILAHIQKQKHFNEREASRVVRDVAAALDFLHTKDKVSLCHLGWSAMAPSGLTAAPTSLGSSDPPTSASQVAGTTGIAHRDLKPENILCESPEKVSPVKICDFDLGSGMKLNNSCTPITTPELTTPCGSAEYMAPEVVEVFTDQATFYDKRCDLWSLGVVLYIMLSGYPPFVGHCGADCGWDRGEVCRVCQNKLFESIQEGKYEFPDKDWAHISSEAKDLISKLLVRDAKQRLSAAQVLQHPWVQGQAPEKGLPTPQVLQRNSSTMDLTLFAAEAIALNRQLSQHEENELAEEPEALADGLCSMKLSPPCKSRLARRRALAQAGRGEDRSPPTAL
UniProt Q16288, whole entry, looked up: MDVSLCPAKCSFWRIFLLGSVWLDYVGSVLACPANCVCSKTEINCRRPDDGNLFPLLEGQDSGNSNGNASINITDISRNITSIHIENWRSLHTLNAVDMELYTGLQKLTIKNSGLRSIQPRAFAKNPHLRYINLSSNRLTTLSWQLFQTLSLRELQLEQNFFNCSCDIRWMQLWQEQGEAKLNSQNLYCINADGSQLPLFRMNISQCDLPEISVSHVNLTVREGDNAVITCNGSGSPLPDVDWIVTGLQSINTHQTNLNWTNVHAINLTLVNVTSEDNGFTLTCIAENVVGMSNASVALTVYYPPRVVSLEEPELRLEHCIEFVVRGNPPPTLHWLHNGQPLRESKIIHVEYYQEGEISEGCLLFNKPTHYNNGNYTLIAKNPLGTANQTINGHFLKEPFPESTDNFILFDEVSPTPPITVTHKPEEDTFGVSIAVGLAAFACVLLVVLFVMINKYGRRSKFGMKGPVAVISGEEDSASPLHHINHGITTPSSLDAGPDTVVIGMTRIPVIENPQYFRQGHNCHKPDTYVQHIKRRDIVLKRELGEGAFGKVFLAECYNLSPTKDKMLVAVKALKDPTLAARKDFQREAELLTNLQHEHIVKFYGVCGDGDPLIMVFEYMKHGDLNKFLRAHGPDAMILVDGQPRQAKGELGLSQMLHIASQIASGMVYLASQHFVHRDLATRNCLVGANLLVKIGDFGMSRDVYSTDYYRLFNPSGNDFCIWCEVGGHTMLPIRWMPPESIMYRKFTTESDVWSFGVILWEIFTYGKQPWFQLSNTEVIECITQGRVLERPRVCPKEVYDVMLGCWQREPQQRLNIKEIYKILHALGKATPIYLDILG
UniProt O96013: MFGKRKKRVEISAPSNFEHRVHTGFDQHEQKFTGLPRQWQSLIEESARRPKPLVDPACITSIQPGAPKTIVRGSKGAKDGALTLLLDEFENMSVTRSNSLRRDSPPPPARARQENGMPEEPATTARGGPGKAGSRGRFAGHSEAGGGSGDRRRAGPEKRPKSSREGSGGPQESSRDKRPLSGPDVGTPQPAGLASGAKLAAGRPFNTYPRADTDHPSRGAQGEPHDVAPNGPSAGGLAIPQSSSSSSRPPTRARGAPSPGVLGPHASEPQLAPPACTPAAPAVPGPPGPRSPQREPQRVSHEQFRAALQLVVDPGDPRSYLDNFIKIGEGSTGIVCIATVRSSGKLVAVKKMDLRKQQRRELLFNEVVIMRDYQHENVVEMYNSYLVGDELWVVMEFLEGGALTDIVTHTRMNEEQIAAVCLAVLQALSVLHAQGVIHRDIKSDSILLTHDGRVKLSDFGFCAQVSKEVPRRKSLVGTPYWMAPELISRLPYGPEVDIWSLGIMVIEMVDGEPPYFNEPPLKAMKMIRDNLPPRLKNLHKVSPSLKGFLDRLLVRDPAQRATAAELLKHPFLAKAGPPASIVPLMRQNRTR
UniProt Q96KB5: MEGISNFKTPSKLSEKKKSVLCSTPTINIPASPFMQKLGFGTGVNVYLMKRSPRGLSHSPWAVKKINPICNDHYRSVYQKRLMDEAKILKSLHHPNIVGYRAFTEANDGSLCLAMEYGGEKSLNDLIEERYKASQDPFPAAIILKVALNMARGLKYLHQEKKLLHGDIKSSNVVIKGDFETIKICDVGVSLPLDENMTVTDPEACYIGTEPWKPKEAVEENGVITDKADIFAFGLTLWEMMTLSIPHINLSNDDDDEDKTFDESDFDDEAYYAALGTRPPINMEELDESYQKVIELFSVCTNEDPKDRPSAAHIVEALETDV
UniProt O15530: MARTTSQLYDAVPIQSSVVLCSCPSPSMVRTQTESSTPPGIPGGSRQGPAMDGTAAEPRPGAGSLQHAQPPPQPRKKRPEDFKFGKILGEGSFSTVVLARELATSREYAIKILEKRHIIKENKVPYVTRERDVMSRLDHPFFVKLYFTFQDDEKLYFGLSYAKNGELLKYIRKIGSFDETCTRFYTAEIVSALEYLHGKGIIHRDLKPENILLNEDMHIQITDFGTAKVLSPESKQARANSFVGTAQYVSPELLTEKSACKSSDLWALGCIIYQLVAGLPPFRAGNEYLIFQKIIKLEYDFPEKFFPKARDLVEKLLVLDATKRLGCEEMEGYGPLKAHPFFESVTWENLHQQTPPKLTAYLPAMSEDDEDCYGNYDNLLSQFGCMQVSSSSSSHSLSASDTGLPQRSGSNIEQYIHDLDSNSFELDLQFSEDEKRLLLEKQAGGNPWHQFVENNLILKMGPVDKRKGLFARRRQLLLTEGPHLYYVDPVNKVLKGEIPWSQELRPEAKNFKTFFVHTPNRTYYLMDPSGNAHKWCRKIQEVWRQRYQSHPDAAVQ
UniProt Q9UBF8: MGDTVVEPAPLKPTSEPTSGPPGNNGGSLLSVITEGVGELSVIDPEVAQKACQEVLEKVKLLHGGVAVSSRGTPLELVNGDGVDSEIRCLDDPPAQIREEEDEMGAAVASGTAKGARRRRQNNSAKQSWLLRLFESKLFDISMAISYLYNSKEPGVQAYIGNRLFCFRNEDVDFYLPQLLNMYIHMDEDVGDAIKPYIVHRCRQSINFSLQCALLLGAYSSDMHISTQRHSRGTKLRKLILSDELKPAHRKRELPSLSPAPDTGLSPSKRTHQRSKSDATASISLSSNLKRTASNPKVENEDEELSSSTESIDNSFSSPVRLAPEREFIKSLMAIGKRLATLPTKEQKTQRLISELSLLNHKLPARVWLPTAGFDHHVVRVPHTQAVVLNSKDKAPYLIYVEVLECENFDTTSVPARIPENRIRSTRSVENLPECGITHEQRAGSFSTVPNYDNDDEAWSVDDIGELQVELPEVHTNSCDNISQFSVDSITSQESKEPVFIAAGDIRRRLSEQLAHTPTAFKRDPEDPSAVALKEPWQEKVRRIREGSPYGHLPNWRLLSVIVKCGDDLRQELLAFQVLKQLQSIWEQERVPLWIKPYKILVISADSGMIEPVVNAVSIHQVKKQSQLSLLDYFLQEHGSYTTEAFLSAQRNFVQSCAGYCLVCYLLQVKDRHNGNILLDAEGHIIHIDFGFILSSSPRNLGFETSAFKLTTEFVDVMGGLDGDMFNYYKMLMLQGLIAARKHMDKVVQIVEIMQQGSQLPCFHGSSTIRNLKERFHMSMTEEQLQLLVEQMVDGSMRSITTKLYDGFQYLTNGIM
UniProt Q13131: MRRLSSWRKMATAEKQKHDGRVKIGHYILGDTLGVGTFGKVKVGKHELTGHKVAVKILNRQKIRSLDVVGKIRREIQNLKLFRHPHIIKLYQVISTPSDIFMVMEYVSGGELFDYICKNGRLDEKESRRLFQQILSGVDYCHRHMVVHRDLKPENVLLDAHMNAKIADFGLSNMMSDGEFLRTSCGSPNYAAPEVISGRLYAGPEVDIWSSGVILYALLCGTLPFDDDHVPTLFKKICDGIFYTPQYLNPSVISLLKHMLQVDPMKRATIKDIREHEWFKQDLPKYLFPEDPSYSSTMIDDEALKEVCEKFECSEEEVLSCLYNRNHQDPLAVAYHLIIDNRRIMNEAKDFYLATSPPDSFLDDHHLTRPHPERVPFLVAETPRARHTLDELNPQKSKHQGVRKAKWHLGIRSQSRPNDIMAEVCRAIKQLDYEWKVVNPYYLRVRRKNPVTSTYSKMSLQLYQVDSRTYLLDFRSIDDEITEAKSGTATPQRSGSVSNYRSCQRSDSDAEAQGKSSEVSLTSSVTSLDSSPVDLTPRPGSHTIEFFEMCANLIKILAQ
UniProt Q05397, whole entry, looked up: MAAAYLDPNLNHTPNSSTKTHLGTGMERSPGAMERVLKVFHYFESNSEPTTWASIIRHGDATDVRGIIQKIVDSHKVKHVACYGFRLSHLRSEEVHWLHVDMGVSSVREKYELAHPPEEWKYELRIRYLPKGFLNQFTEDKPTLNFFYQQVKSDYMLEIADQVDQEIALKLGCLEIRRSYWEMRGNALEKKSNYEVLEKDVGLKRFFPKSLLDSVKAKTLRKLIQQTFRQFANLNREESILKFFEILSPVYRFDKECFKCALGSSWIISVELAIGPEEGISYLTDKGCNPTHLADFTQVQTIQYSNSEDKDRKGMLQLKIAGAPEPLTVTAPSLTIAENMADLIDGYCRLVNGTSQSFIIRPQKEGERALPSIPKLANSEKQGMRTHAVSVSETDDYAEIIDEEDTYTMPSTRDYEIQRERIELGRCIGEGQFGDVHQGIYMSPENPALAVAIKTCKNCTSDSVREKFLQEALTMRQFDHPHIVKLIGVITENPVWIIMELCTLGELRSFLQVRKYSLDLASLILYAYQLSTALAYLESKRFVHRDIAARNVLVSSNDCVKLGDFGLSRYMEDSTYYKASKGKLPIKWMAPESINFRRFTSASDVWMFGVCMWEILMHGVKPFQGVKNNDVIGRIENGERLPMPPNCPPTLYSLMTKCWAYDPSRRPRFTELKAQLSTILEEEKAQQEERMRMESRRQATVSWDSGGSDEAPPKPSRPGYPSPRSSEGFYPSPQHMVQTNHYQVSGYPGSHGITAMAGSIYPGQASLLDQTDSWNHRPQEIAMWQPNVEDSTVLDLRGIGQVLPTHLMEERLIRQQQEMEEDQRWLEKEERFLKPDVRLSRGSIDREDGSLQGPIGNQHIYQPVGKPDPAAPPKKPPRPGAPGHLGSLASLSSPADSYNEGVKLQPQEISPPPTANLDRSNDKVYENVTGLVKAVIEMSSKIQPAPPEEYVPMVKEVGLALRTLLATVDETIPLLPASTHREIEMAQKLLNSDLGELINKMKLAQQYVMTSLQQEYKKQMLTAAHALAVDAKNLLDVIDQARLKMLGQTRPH
UniProt Q14289, whole entry, looked up: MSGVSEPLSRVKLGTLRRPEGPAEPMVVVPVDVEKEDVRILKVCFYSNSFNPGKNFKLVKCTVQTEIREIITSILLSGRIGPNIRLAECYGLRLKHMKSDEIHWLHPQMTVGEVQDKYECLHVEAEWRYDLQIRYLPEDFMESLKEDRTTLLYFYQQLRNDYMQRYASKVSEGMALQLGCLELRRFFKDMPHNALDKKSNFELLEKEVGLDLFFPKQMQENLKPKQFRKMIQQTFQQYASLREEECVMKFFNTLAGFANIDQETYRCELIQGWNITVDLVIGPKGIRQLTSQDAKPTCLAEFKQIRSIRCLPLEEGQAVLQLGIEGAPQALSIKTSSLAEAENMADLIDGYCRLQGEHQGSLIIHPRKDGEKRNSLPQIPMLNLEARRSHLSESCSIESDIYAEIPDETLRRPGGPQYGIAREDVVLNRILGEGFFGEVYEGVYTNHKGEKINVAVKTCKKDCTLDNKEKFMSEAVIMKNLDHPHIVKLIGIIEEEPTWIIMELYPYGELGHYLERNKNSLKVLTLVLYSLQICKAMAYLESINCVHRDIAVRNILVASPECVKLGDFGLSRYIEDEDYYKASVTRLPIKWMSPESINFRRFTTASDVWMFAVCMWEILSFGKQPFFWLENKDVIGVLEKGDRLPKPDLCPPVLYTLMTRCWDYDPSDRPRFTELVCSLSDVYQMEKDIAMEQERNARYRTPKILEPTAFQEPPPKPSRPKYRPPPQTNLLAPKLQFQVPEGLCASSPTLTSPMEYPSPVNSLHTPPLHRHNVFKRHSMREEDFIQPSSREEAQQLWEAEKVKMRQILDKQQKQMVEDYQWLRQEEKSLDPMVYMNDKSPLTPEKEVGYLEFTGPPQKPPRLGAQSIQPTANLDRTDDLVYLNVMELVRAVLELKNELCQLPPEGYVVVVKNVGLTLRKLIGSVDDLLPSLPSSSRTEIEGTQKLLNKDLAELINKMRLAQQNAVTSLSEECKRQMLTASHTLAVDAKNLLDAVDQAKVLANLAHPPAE

Assays:
Test in all cases: kinase-Nluc reporter destabilization hit call (1 = scored as downregulated) (binary); higher = compound decreases kinase abundance
Conditions in all cases: K562; 2-18 h
MAPK1 = MAPK1 (UniProt P28482)
MAPK4 = MAPK4 (UniProt P31152)
MAPKAPK2 = MAPKAPK2 (UniProt P49137)
MKNK1 = MKNK1 (UniProt Q9BUB5)
NTRK2 = NTRK2 (UniProt Q16620)
NTRK3 = NTRK3 (UniProt Q16288)
PAK4 = PAK4 (UniProt O96013)
PBK = PBK (UniProt Q96KB5)
PDGFRB = PDGFRB (UniProt P09619)
PDK1 = PDK1 (UniProt Q15118)
PDPK1 = PDPK1 (UniProt O15530)
PIK4CA = PIK4CA (UniProt P42356)
PIK4CB = PIK4CB (UniProt Q9UBF8)
PLK1 = PLK1 (UniProt P53350)
PRKAA1 = PRKAA1 (UniProt Q13131)
PRKCA = PRKCA (UniProt P17252)
PTK2 = PTK2 (UniProt Q05397)
PTK2B = PTK2B (UniProt Q14289)
RAF1 = RAF1 (UniProt P04049)
[1] = target: RAF1_S257L (clone: RAF1_mut) (UniProt P04049)

Measured: kinase-Nluc reporter destabilization hit call

O=C(O)/C=C/c1cc(Br)c(Br)c(Br)c1Br (10 µM)
inactive: MAPK1 = 0 | MAPK4 = 0 | MAPKAPK2 = 0 | MKNK1 = 0 | NTRK2 = 0 | NTRK3 = 0 | PAK4 = 0 | PBK 0 | PDGFRB 0 | PDK1 = 0 | PDPK1 = 0 | PIK4CA 0 | PIK4CB 0 | PLK1 = 0 | PRKAA1 = 0 | PRKCA 0 | PTK2 = 0 | PTK2B 0 | RAF1 = 0 | [1] 0

C[C@H]1CNC(=O)c2cnn3ccc(nc23)N[C@H](C)c2cc(F)ccc2O1 [Repotrectinib] (2.5 µM)
inactive: MAPK1 = 0 | MAPK4 = 0 | MAPKAPK2 = 0 | MKNK1 = 0 | NTRK2 = 0 | NTRK3 = 0 | PAK4 = 0 | PBK 0 | PDGFRB 0 | PDK1 = 0 | PDPK1 = 0 | PIK4CA 0 | PIK4CB 0 | PLK1 = 0 | PRKAA1 = 0 | PRKCA 0 | PTK2 = 0 | PTK2B 0 | RAF1 = 0 | [1] 0

CC[C@@H]1CN(C(=O)NCC(F)(F)F)C[C@@H]1c1cnc2cnc3[nH]ccc3n12 [Upadacitinib] (10 µM)
inactive: MAPK1 = 0 | MAPK4 = 0 | MAPKAPK2 = 0 | MKNK1 = 0 | NTRK2 = 0 | NTRK3 = 0 | PAK4 = 0 | PBK 0 | PDGFRB 0 | PDK1 = 0 | PDPK1 = 0 | PIK4CA 0 | PIK4CB 0 | PLK1 = 0 | PRKAA1 = 0 | PRKCA 0 | PTK2 = 0 | PTK2B 0 | RAF1 = 0 | [1] 0

CCOc1cc(C(=O)N2CCC(N3CCN(C)CC3)CC2)ccc1Nc1ncc2c(n1)N(S(C)(=O)=O)c1ccccc1C(=O)N2C (10 µM)
inactive: MAPK1 = 0 | MAPK4 = 0 | MAPKAPK2 = 0 | MKNK1 = 0 | NTRK2 = 0 | NTRK3 = 0 | PAK4 = 0 | PBK 0 | PDGFRB 0 | PDK1 = 0 | PDPK1 = 0 | PIK4CA 0 | PIK4CB 0 | PLK1 = 0 | PRKAA1 = 0 | PRKCA 0 | PTK2 = 0 | PTK2B 0 | RAF1 = 0 | [1] 0

C=C[C@H]1[C@H](O[C@@H]2O[C@H](CO)[C@@H](O)[C@H](O)[C@H]2O)OC=C(C(=O)OC)[C@H]1CCOC(=O)c1cc(O)c(O)c(O)c1 [Cornuside] (10 µM)
inactive: MAPK1 = 0 | MAPK4 = 0 | MAPKAPK2 = 0 | MKNK1 = 0 | NTRK2 = 0 | NTRK3 = 0 | PAK4 = 0 | PBK 0 | PDGFRB 0 | PDK1 = 0 | PDPK1 = 0 | PIK4CA 0 | PIK4CB 0 | PLK1 = 0 | PRKAA1 = 0 | PRKCA 0 | PTK2 = 0 | PTK2B 0 | RAF1 = 0 | [1] 0

Already shown: two of the compounds above.
O=C(O)/C=C/c1cc(Br)c(Br)c(Br)c1Br (10 µM)
inactive: MAPK1 = 0 | MAPK4 = 0 | MAPKAPK2 = 0 | MKNK1 = 0 | NTRK2 = 0 | NTRK3 = 0 | PAK4 = 0 | PBK 0 | PDGFRB 0 | PDK1 = 0 | PDPK1 = 0 | PIK4CA 0 | PIK4CB 0 | PLK1 = 0 | PRKAA1 = 0 | PRKCA 0 | PTK2 = 0 | PTK2B 0 | RAF1 = 0 | [1] 0

C[C@H]1CNC(=O)c2cnn3ccc(nc23)N[C@H](C)c2cc(F)ccc2O1 [Repotrectinib] (2.5 µM)
inactive: MAPK1 = 0 | MAPK4 = 0 | MAPKAPK2 = 0 | MKNK1 = 0 | NTRK2 = 0 | NTRK3 = 0 | PAK4 = 0 | PBK 0 | PDGFRB 0 | PDK1 = 0 | PDPK1 = 0 | PIK4CA 0 | PIK4CB 0 | PLK1 = 0 | PRKAA1 = 0 | PRKCA 0 | PTK2 = 0 | PTK2B 0 | RAF1 = 0 | [1] 0

Continuation:

COc1ccc(F)cc1C(=O)NCc1ccc(-c2nn([C@@H](C)C(F)(F)F)c(N)c2C(N)=O)cc1 [Pirtobrutinib] (10 µM)
inactive: MAPK1 = 0 | MAPK4 = 0 | MAPKAPK2 = 0 | MKNK1 = 0 | NTRK2 = 0 | NTRK3 = 0 | PAK4 = 0 | PBK 0 | PDGFRB 0 | PDK1 = 0 | PDPK1 = 0 | PIK4CA 0 | PIK4CB 0 | PLK1 = 0 | PRKAA1 = 0 | PRKCA 0 | PTK2 = 0 | PTK2B 0 | RAF1 = 0 | [1] 0

Cn1sc(=O)n(Cc2ccccc2)c1=O (10 µM)
inactive: MAPK1 = 0 | MAPK4 = 0 | MAPKAPK2 = 0 | MKNK1 = 0 | NTRK2 = 0 | NTRK3 = 0 | PAK4 = 0 | PBK 0 | PDGFRB 0 | PDK1 = 0 | PDPK1 = 0 | PIK4CA 0 | PIK4CB 0 | PLK1 = 0 | PRKAA1 = 0 | PRKCA 0 | PTK2 = 0 | PTK2B 0 | RAF1 = 0 | [1] 0

O=C(NCc1cccc(O)c1)c1cc2cc(F)ccc2[nH]1 (10 µM)
inactive: MAPK1 = 0 | MAPK4 = 0 | MAPKAPK2 = 0 | MKNK1 = 0 | NTRK2 = 0 | NTRK3 = 0 | PAK4 = 0 | PBK 0 | PDGFRB 0 | PDK1 = 0 | PDPK1 = 0 | PIK4CA 0 | PIK4CB 0 | PLK1 = 0 | PRKAA1 = 0 | PRKCA 0 | PTK2 = 0 | PTK2B 0 | RAF1 = 0 | [1] 0

COc1cccc(Nc2ncnn3ccc(CN4CC[C@@H](N)[C@H](O)C4)c23)c1 (2.5 µM)
inactive: MAPK1 = 0 | MAPK4 = 0 | MAPKAPK2 = 0 | MKNK1 = 0 | NTRK2 = 0 | NTRK3 = 0 | PAK4 = 0 | PBK 0 | PDGFRB 0 | PDK1 = 0 | PDPK1 = 0 | PIK4CA 0 | PIK4CB 0 | PLK1 = 0 | PRKAA1 = 0 | PRKCA 0 | PTK2 = 0 | PTK2B 0 | RAF1 = 0 | [1] 0

N#Cc1c[nH]c2ccc(-c3ccc(-c4c(O)cccc4O)cc3)cc12 (10 µM)
inactive: MAPK1 = 0 | MAPK4 = 0 | MAPKAPK2 = 0 | MKNK1 = 0 | NTRK2 = 0 | NTRK3 = 0 | PAK4 = 0 | PBK 0 | PDGFRB 0 | PDK1 = 0 | PDPK1 = 0 | PIK4CA 0 | PIK4CB 0 | PLK1 = 0 | PRKAA1 = 0 | PRKCA 0 | PTK2 = 0 | PTK2B 0 | RAF1 = 0 | [1] 0

Cc1c(Br)c(Br)c2c3c1nc(N1CCNCC1)n3CCC2 [SEL120-34A (monohydrochloride)] (2.5 µM)
inactive: MAPK1 = 0 | MAPK4 = 0 | MAPKAPK2 = 0 | MKNK1 = 0 | NTRK2 = 0 | NTRK3 = 0 | PAK4 = 0 | PBK 0 | PDGFRB 0 | PDK1 = 0 | PDPK1 = 0 | PIK4CA 0 | PIK4CB 0 | PLK1 = 0 | PRKAA1 = 0 | PRKCA 0 | PTK2 = 0 | PTK2B 0 | RAF1 = 0 | [1] 0

CNS(=O)(=O)C[C@H]1CC[C@H](N(C)c2[nH]cnc3nccc2-3)CC1 [Oclacitinib (maleate)] (10 µM)
inactive: MAPK1 = 0 | MAPK4 = 0 | MAPKAPK2 = 0 | MKNK1 = 0 | NTRK2 = 0 | NTRK3 = 0 | PAK4 = 0 | PBK 0 | PDGFRB 0 | PDK1 = 0 | PDPK1 = 0 | PIK4CA 0 | PIK4CB 0 | PLK1 = 0 | PRKAA1 = 0 | PRKCA 0 | PTK2 = 0 | PTK2B 0 | RAF1 = 0 | [1] 0

CS(=O)(=O)N1CCN(Cc2cn3cc(-c4cnc(N)nc4)nc(N4CCOCC4)c3n2)CC1 (10 µM)
inactive: MAPK1 = 0 | MAPK4 = 0 | MAPKAPK2 = 0 | MKNK1 = 0 | NTRK2 = 0 | NTRK3 = 0 | PAK4 = 0 | PBK 0 | PDGFRB 0 | PDK1 = 0 | PDPK1 = 0 | PIK4CA 0 | PIK4CB 0 | PLK1 = 0 | PRKAA1 = 0 | PRKCA 0 | PTK2 = 0 | PTK2B 0 | RAF1 = 0 | [1] 0

Cc1cccc(-c2[nH]c(C(C)(C)C)nc2-c2ccc3c(c2)OCO3)n1 (2.5 µM)
inactive: MAPK1 = 0 | MAPK4 = 0 | MAPKAPK2 = 0 | MKNK1 = 0 | NTRK2 = 0 | NTRK3 = 0 | PAK4 = 0 | PBK 0 | PDGFRB 0 | PDK1 = 0 | PDPK1 = 0 | PIK4CA 0 | PIK4CB 0 | PLK1 = 0 | PRKAA1 = 0 | PRKCA 0 | PTK2 = 0 | PTK2B 0 | RAF1 = 0 | [1] 0

CCCCCC1CC1CC1CC1CCCCCCCC(=O)O (stereo not given) (10 µM)
inactive: MAPK1 = 0 | MAPK4 = 0 | MAPKAPK2 = 0 | MKNK1 = 0 | NTRK2 = 0 | NTRK3 = 0 | PAK4 = 0 | PBK 0 | PDGFRB 0 | PDK1 = 0 | PDPK1 = 0 | PIK4CA 0 | PIK4CB 0 | PLK1 = 0 | PRKAA1 = 0 | PRKCA 0 | PTK2 = 0 | PTK2B 0 | RAF1 = 0 | [1] 0

CC(=O)c1cc(O)ccc1O [2,5-Dihydroxyacetophenone] (10 µM)
inactive: MAPK1 = 0 | MAPK4 = 0 | MAPKAPK2 = 0 | MKNK1 = 0 | NTRK2 = 0 | NTRK3 = 0 | PAK4 = 0 | PBK 0 | PDGFRB 0 | PDK1 = 0 | PDPK1 = 0 | PIK4CA 0 | PIK4CB 0 | PLK1 = 0 | PRKAA1 = 0 | PRKCA 0 | PTK2 = 0 | PTK2B 0 | RAF1 = 0 | [1] 0

C=CC(=O)N1CCC[C@@H](n2c(=O)n(-c3ccc(Oc4ccccc4)cc3)c3c(N)nccc32)C1 [Tolebrutinib] (10 µM)
inactive: MAPK1 = 0 | MAPK4 = 0 | MAPKAPK2 = 0 | MKNK1 = 0 | NTRK2 = 0 | NTRK3 = 0 | PAK4 = 0 | PBK 0 | PDGFRB 0 | PDK1 = 0 | PDPK1 = 0 | PIK4CA 0 | PIK4CB 0 | PLK1 = 0 | PRKAA1 = 0 | PRKCA 0 | PTK2 = 0 | PTK2B 0 | RAF1 = 0 | [1] 0
